No constants are given. Whether binding was seen depends on the method and setting. In cells and extracts the contact can be indirect. Here binding means that the protein was enriched with, or labelled near, the bait; the list need not be complete.
biological target: BAG3 (BCL-2-associated athanogene 3) (human (endogenous in HEK293T)) (UniProt O95817); experiment: affinity purification with mass spectrometry; endogenous BAG3 immunoprecipitated with anti-BAG3 antibody and Protein A/G magnetic beads from HEK293T lysate; cells treated with DMSO (basal) or 10 µM MG132 for 6 h; IgG IP (MG132_IgG) as control; label-free quantification, three biological replicates

The chains behind the UniProt entries cited, without tags or fusion partners.
UniProt Q9Y262: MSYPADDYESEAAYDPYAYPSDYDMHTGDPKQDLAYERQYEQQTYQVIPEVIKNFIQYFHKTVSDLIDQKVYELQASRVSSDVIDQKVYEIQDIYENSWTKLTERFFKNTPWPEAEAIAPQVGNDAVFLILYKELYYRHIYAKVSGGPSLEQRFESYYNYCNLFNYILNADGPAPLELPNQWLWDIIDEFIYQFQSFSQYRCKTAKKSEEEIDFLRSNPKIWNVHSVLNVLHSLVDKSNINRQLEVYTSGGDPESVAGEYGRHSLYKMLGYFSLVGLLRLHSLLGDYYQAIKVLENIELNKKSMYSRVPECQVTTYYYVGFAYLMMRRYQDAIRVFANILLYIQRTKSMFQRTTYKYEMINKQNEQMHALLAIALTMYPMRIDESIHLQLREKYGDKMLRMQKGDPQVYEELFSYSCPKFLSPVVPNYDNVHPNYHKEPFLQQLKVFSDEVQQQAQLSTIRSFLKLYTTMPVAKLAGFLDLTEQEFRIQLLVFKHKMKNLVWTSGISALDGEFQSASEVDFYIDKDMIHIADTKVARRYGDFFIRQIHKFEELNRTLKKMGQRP
UniProt O75175: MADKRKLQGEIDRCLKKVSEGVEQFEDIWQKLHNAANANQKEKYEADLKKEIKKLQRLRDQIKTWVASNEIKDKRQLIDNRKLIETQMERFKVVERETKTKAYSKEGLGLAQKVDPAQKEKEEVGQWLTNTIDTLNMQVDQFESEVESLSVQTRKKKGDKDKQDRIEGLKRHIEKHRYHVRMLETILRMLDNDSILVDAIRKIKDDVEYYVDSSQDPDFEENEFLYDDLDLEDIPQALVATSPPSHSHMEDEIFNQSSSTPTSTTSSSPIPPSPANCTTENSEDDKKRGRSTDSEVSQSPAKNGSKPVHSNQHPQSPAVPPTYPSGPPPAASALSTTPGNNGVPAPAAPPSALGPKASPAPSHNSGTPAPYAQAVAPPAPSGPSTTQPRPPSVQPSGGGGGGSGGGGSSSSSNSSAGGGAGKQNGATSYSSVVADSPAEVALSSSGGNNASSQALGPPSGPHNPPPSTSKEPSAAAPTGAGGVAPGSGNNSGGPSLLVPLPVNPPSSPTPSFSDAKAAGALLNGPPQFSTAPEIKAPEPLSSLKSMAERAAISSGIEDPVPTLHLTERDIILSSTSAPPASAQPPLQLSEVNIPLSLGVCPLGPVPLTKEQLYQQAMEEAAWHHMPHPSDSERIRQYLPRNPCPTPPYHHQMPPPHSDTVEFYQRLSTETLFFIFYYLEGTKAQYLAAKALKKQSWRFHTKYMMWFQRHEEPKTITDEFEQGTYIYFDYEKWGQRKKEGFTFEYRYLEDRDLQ
UniProt Q9ULV4: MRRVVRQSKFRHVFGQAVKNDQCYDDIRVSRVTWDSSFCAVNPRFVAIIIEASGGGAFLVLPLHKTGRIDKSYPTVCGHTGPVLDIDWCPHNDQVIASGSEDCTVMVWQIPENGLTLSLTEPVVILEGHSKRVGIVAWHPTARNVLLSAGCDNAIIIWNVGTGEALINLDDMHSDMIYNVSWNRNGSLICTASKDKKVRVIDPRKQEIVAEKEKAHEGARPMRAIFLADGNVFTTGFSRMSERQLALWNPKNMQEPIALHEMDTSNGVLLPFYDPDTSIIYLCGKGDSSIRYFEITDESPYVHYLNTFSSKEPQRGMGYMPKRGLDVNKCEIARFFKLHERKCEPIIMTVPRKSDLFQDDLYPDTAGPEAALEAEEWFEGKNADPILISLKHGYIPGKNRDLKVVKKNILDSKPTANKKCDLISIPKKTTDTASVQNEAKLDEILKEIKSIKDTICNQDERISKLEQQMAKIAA
UniProt Q92769: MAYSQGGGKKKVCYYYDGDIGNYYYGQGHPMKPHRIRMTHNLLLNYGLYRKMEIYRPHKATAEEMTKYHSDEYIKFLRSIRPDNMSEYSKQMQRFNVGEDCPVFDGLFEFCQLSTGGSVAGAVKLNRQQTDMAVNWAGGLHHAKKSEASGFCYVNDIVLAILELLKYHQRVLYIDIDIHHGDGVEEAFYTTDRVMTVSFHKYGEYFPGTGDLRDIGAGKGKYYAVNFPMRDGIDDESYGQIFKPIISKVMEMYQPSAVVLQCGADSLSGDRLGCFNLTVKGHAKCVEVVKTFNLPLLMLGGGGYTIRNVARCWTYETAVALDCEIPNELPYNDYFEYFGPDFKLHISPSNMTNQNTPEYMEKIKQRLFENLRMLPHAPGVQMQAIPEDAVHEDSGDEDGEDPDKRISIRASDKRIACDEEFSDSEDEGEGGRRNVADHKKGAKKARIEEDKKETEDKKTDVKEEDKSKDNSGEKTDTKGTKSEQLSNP
UniProt Q13547: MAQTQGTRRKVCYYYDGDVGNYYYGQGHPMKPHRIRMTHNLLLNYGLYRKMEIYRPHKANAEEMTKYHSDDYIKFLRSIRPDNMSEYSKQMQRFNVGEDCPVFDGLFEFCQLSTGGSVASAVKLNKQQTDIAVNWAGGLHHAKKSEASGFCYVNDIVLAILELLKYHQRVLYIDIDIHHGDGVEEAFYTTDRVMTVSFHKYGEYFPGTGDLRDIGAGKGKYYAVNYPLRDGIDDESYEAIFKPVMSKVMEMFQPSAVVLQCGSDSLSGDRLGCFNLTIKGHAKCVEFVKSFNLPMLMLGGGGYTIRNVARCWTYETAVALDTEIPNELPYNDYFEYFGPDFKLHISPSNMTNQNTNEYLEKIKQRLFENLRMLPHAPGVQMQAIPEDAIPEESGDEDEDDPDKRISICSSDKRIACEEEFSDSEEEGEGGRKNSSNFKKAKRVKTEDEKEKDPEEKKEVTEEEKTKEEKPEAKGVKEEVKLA
UniProt Q13561: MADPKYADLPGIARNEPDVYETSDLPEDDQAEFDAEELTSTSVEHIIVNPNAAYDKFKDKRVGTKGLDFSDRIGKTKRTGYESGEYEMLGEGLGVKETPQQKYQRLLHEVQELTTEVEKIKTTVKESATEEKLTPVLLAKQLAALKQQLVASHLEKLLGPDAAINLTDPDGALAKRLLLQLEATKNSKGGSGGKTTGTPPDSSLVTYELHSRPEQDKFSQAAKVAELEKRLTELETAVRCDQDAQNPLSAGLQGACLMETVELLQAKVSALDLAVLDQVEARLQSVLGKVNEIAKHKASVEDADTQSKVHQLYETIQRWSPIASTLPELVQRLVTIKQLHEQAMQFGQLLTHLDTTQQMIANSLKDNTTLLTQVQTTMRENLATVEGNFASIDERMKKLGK
UniProt P63010: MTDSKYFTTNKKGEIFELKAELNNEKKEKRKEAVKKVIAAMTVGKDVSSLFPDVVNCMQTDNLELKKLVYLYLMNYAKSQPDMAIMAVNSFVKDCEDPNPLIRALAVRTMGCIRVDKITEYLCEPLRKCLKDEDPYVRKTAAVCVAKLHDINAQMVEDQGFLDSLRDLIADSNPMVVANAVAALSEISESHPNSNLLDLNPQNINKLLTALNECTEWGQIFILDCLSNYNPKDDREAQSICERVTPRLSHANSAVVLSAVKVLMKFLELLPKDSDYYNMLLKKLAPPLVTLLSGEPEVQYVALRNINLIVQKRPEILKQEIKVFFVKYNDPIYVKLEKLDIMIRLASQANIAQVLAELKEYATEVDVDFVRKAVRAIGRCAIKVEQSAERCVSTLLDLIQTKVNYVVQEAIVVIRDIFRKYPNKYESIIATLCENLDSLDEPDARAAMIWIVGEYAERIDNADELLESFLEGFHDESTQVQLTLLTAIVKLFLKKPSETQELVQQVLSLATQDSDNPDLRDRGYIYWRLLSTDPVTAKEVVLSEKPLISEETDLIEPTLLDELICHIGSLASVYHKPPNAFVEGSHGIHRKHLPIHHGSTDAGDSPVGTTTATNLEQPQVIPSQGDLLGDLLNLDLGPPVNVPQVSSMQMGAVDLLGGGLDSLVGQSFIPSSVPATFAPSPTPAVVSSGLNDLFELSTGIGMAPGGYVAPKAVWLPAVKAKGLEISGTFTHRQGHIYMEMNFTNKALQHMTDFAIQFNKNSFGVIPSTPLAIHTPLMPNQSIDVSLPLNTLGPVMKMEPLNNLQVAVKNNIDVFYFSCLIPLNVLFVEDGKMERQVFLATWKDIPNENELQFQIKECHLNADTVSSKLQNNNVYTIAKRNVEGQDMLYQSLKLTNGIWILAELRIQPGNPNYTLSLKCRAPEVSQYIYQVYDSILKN
UniProt O60826: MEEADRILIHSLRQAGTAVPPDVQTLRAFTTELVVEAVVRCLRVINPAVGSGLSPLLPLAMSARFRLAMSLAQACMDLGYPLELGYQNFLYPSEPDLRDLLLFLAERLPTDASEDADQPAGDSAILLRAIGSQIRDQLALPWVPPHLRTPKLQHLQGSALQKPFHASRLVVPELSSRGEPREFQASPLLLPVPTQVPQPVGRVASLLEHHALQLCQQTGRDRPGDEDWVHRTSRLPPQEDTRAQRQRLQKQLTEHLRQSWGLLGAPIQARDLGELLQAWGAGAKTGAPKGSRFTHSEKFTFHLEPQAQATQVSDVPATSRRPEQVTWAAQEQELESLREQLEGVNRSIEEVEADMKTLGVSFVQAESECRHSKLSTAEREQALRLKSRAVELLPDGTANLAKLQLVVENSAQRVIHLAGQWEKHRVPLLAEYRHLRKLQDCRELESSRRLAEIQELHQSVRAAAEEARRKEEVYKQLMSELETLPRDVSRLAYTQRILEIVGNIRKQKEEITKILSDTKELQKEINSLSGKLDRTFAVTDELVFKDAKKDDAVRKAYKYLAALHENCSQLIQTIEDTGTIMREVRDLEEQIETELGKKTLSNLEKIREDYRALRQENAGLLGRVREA
UniProt Q9Y265: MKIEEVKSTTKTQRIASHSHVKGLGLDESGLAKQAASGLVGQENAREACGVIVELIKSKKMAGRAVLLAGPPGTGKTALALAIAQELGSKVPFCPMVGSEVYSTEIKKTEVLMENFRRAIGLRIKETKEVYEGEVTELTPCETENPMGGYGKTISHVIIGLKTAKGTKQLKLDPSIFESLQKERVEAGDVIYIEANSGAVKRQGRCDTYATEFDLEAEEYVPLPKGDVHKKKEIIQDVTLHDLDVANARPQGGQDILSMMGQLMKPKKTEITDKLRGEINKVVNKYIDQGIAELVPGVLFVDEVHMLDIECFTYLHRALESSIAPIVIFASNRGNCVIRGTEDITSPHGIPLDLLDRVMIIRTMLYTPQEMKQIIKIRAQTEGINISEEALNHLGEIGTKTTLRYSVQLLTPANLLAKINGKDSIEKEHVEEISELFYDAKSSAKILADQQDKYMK
UniProt P12814: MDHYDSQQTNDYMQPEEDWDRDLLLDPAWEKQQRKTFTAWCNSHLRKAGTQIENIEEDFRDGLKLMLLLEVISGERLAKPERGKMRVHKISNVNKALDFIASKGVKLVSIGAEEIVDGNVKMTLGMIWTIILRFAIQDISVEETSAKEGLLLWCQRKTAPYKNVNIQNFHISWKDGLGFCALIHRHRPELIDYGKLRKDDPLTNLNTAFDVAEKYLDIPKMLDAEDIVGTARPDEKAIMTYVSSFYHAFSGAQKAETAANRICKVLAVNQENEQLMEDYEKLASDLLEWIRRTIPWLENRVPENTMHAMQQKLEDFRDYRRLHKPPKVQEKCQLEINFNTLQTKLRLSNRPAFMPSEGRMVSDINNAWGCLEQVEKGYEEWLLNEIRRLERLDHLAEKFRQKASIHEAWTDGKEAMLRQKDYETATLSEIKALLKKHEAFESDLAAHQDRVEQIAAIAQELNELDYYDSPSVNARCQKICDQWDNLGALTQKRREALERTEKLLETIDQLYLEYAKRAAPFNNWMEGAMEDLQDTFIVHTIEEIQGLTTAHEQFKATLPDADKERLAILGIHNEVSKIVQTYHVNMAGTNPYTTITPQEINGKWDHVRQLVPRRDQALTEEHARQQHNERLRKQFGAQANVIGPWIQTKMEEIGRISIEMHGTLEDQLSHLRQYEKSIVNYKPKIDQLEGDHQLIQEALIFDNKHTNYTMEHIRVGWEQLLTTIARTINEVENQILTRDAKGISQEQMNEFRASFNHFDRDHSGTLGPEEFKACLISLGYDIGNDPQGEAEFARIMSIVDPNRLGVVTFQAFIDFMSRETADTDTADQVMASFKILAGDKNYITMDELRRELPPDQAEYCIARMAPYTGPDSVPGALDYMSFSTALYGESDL
UniProt O43237: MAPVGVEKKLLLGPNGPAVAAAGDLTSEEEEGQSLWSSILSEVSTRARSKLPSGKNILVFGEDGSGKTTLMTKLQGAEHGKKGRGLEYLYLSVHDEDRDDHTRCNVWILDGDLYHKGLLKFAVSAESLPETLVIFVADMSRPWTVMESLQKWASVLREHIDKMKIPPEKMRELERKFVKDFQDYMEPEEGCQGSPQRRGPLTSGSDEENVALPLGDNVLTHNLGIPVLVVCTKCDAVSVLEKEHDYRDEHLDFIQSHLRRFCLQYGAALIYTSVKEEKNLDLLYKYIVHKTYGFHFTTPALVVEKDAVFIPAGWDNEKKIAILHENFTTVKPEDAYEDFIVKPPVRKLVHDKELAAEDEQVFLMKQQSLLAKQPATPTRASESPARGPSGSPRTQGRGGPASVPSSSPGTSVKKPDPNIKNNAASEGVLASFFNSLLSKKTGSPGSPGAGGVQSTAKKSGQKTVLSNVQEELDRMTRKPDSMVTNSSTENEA

binding, binds:
EIF4G2 (from UniProt P78344 1-907)
Protein LSM12 homolog (from UniProt Q3MHD2 1-195)
Eukaryotic translation initiation factor 3 subunit L (from UniProt Q9Y262 1-564)
E1 enzyme UBA1 (from UniProt P22314 1-1058)
HSPA6 (from UniProt P17066 1-643)
CNOT10 (from UniProt Q9H9A5 1-744)
CNOT3 (from UniProt O75175 1-753)
PIK3R2 (from UniProt O00459 1-728)
N-acetylglucosamine-1-phosphotransferase subunits alpha/beta (from UniProt Q3T906 1-1256)
FUS (from UniProt P35637 1-526)
SGTA (from UniProt O43765 1-313)
PPAT (from UniProt Q06203 12-517)
RNA-binding factor IGF2BP2 (from UniProt Q9Y6M1 1-599)
PLK1 (from UniProt P53350 1-603)
TUBGCP2 (from UniProt Q9BSJ2 1-902)
Transcriptional repressor p66-beta (from UniProt Q8WXI9 1-593)
TUBB4B (from UniProt P68371 1-445)
UMPS (from UniProt P11172 1-480)
LARP4 (from UniProt Q71RC2 1-724)
nucleotide-exchange factor HSPH1 (from UniProt Q92598 1-858)
SWI/SNF-related matrix-associated actin-dependent regulator of chromatin subfamily B member 1 (from UniProt Q12824 1-385)
ATXN2 (from UniProt Q99700 1-1313)
CYFIP1 (from UniProt Q7L576 1-1253)
HSPA4 (from UniProt P34932 1-840)
A-kinase anchor protein 12 (from UniProt Q02952 1-1782)
Histone-binding protein RBBP4 (from UniProt Q09028 1-425)
CUL4B (from UniProt Q13620 1-913)
26S proteasome non-ATPase regulatory subunit 3 (from UniProt O43242 1-534)
FXR1 (from UniProt P51114 1-621)
26S proteasome non-ATPase regulatory subunit 12 (from UniProt O00232 1-456)
APC/C component ANAPC5 (from UniProt Q9UJX4 1-755)
CEP250 (from UniProt Q9BV73 1-2442)
GMPS (from UniProt P49915 1-693)
importin subunit KPNA1 (from UniProt P52294 1-538)
Eukaryotic translation initiation factor 3 subunit C (from UniProt Q99613 1-913)
Kinetochore protein Nuf2 (from UniProt Q9BZD4 1-464)
Glutamine synthetase (from UniProt P15104 1-373)
CORO1C (from UniProt Q9ULV4 1-474)
AP2M1 (from UniProt Q96CW1 1-435)
MAP4 (from UniProt P27816 1-1152)
HDAC2 (from UniProt Q92769 1-488)
Guanine nucleotide-binding protein G(k) subunit alpha (from UniProt P08754 1-354)
POLD1 (from UniProt P28340 1-1107)
EIF3D (from UniProt O15371 1-548)
DCTN5 (from UniProt Q9BTE1 1-182)
CLTC protein, the heavy chain of clathrin (from UniProt Q00610 1-1675)
Replication protein A 70 kDa DNA-binding subunit (from UniProt P27694 1-616)
HNRNPH1 (from UniProt P31943 1-449)
Histone deacetylase 1 (from UniProt Q13547 1-482)
tyrosine-protein kinase YES1 (Yamaguchi Sarcoma viral oncogene homologue 1) (from UniProt P07947 1-543)
signal transducer and transcription activator STAT1 (from UniProt P42224 1-750)
DCTN2 (from UniProt Q13561 1-401)
CENPE (from UniProt Q02224 1-2701)
AP2B1 (from UniProt P63010 1-937)
FXR2 (from UniProt P51116 1-673)
YTH domain-containing family protein 3 (from UniProt Q7Z739 1-585)
CCNB2 (from UniProt O95067 1-398)
CPSF6 (from UniProt Q16630 1-551)
Coiled-coil domain-containing protein 22 (from UniProt O60826 1-627)
14-3-3 protein beta/alpha (from UniProt P31946 1-246)
RPA-related protein RADX (CXorf57) (from UniProt Q6NSI4 1-855)
PABPC3 (from UniProt Q9H361 1-631)
T-complex protein 1 subunit epsilon (from UniProt P48643 1-541)
EIF3CL (from UniProt B5ME19 1-914)
autophagy receptor p62 (SQSTM1) (from UniProt Q13501 1-440)
STAU1 (from UniProt O95793 1-577)
26S protease regulatory subunit 8 (from UniProt P62195 1-406)
SMARCD1 (from UniProt Q96GM5 1-515)
TYMS (from UniProt P04818 1-313)
EIF4G3 (from UniProt O43432 1-1585)
PABPC1 (from UniProt P11940 1-636)
PSMD4 (from UniProt P55036 1-377)
ZNF207 (from UniProt O43670 1-478)
Kelch-like ECH-associated protein 1 (from UniProt Q14145 1-624)
RUVBL1 (from UniProt Q9Y265 1-456)
vimentin (from UniProt P08670 1-466)
multiubiquitin chain receptor RAD23B (from UniProt P54727 1-409)
Protein PRRC2C (from UniProt Q9Y520 1-2896)
nuclear factor NFκB subunit p65 (RELA) (from UniProt Q04206 1-551)
Actin-related protein 10 (from UniProt Q9NZ32 1-417)
ATIC (from UniProt P31939 1-592)
Far upstream element-binding protein 3 (from UniProt Q96I24 1-572)
LSM14A (from UniProt Q8ND56 1-463)
tumor suppressor protein p53 (TP53) (from UniProt P04637 1-393)
AP2A2 (from UniProt O94973 1-939)
Serine/threonine-protein kinase WNK1 (from UniProt Q9H4A3 1-2382)
ACTL6A (from UniProt O96019 1-429)
TNRC6A (from UniProt Q8NDV7 1-1962)
CTBP2 (from UniProt P56545 1-445)
Alpha-actinin-1 (from UniProt P12814 1-892)
PSMC4 (from UniProt P43686 1-418)
CACNA2D1 (from UniProt P54289 25-1103)
DYNC1LI2 (from UniProt O43237 1-492)
ubiquilin UBQLN2 (from UniProt Q9UHD9 1-624)
Obscurin-like protein 1 (from UniProt O75147 1-1896)
Protein FAM91A1 (from UniProt Q658Y4 1-838)
PTBP1 (from UniProt P26599 1-557)
DCTN4 (from UniProt Q9UJW0 1-460)
Exportin-1 (from UniProt O14980 1-1071)
TUBGCP4 (from UniProt Q9UGJ1 1-667)
chaperonin HSPD1 (from UniProt P10809 27-573)
LARP4B (from UniProt Q92615 1-738)

Source: paper PMC7694386
